Paper PMC12520551
For at least one entry, the source does not settle the construct or the ends of the probe.

Columns and labels:
[1] = test system: MBP-GmSop20C (Glycine max); test: EMSA; settings: poly(dI-dC), 5x buffer: 100 mM HEPES pH 7.4, 250 mM KCl, 10 mM MgCl2, 2.5 mM EDTA, 100 ng/uL BSA, 1% NP-40, 50% glycerol, poly(dI-dC) 0.1 ug/uL, 250-500 ng protein, recombinant protein
[2] = test system: MBP-GmSop20CACT (Glycine max); test: EMSA; settings: poly(dI-dC), 5x buffer: 100 mM HEPES pH 7.4, 250 mM KCl, 10 mM MgCl2, 2.5 mM EDTA, 100 ng/uL BSA, 1% NP-40, 50% glycerol, poly(dI-dC) 0.1 ug/uL, 250-500 ng protein, recombinant protein

“GCTCACACTATGAGACAAACGAGTA (double strand) [GmSWEET10a/b promoter probe (GmSop20-Biotin)]”: binds [1]; binds [2].
